# Data from patent publication US20210010089A1, “TUMOR MINIMAL RESIDUAL DISEASE STRATIFICATION” (VIB VZW, priority 2018, published 2021).
# For at least one compound, name, drawing or mass did not settle the structure.
# System: GFRA2-positive MEL006 cells
# Assay: FACS of GFRA2-positive cells (NDTCs) in MEL006 cultures
# Settings: FAK inhibitor added to DT-treated MEL006 cells
smiles,measurement,value
CNC(=O)c1ccc(Nc2ncc(C(F)(F)F)c(NCc3nccnc3N(C)S(C)(=O)=O)n2)cc1 [defactinib],drug-dependent emergence of the GFRA2-high cell population,diminished the drug-dependent emergence of the GFRA2-high cell population in a dose-dependent manner
